According to patent EP3694851B1, “ENVIRONMENTALLY DEGRADABLE QUINOLONE ANTIBIOTICS HAVING A HEMIAMINAL STRUCTURAL UNIT” (priority 2017, dated 2019):

Assay: Abiotic hydrolysis (pH-dependent, phosphate-buffered saline, HPLC)
Conditions: chosen pH conditions (pH 6, pH 7,4 at 37°C; pH 9 at room temperature; 28 days)
Method: Der pH-Wert wurde auf pH 6, pH 7,4 oder pH 9 eingestellt. Die Ansätze wurden bei 37 °C für pH 6 und 7,4 und bei Raumtemperatur für pH 9 unter Schütteln (250 rpm) für 28 Tage inkubiert. An Tag 0, 1, 7, 14, 21 und 28 wurden Proben (700µL) für die HPLC Analyse entnommen. Der Quotient der Ausgangskonzentration co durch die Konzentration am jeweiligen Zeitpunkt (ct) wurde kalkuliert und als natürlicher Logarithmus gegen die Inkubationszeit aufgetragen.
Eine NUCLEODUR® RP-C18 (CC 125/4 100-5µm C18 ec) Säule und mobile Phasen bestehend aus 0.1 % Ameisensäure in hochreinem Wasser (CH2O2: Solution A) and 100 % Acetonitril (CH3CN: Solution B) wurden verwendet. Die Flußrate wurde auf 0.5 mL min^-1 eingestellt. Die Temperatur des Säulenofens wurde auf 25 °C eingestellt und das Injektionsvolumen betrug 10 µL. […] Die Testsubstanzen wurden durch einen UV/Vis Detektor bei 270 nm detektiert. Die Fließgradientenmethode wurde angewendet wie in Tabelle 1 aufgelistet. Tabelle 1 : Fließgradientenbedingungen zur chromatographischen Analyse der Testsubstanzen

With `O=C(O)c1cn(C2CC2)c2cc(N3CCNCC3)c(F)cc2c1=O` [Ciprofloxacin, reference compound] the “Instabilität unter den gewählten pH-Bedingungen” value was “Weder das verbleibende Fragment noch die Ausgangssubstanz Ciprofloxacin waren unter den gewählten pH-Bedingungen instabil”.
